In the supplement of paper PMC3334620:
Whole data set: some 33,000 sequences, median “E-score (-0.5 to 0.5)” near -8e-05, cut for the highest 2% near 0.23. The list shows a part of the results.

target: T1, Nrg2 (UniProt P38082); assay: PBM E-score (8-mer binding enrichment) (E-score (-0.5 to 0.5)); higher = stronger / more preferred TF binding; settings: protein concentration: 100 nM; construct: GST-full length
T1 sequence: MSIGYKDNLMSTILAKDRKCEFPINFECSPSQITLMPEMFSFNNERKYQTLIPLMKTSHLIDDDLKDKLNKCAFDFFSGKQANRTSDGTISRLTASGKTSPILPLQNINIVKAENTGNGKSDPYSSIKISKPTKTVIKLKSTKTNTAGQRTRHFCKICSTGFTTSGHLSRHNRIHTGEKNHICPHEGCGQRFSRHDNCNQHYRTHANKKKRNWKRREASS
Outline: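 The E-score, a modified Wilcoxon-Mann-Whitney statistic, was computed by the Universal PBM Analysis Suite for every ungapped eight-base word pooled with its reverse complement. Scans behind it were normalised with masliner after bound GST-tagged yeast transcription factors were detected with fluorescent anti-GST. The proteins, at about 100-200 nM, had been applied to universal all-10-mer Agilent arrays made double-stranded by primer extension.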

Sequence | PBM E-score
GGATCCCC | -0.0824
CATCTGCA | 0.098
AGCTTGTG | 0.00263
GTTGCCCA | 0.086
TAGCAGAA | 0.0621
ATTTAGCA | 0.012
AGGATGAG | -0.014
TTCGAAAA | 0.164
AGGGAGAC | -0.0587
CCTCTGGC | -0.0616
ACGTGGAA | 0.0714
AAGTAGTA | -0.0279
ATACTCCC | -0.0596
CGCGAATC | -0.0456
ACCAAGAA | 0.144
AATAGTAT | 0.17
CAATGAAG | 0.00114
CTATGTTC | 0.0921
AACAGAGA | 0.0705
ATGGGGCC | -0.195
CCATCAAC | 0.0217
AATAAGTC | -0.0943
AGACCACT | 0.0184
GCCAGCGA | -0.0867
AACGGTTA | -0.165

A section taken from the entries so far:
Sequence | PBM E-score
AATAGTAT | 0.17
CAATGAAG | 0.00114
CTATGTTC | 0.0921
AACAGAGA | 0.0705

Given as tab-separated lines: part of the list above.
Sequence	PBM E-score
AATAGTAT	0.17
CAATGAAG	0.00114
CTATGTTC	0.0921

Going on with the list.

Sequence | PBM E-score
AACTTATT | 0.256
ACACTAGC | -0.00995
CGGACACG | -0.0788
AAGTATCC | 0.0677
AACTGTAG | 0.0915
CGGGGGTC | -0.342
AAATACAA | 0.0802
GCCTGTAC | 0.0536
CACTTCGC | -0.00344
GGGAACCC | 0.0858
CATGAAAA | 0.156
CCGGCTCG | -0.0875
CGACGAGA | -0.0355
TACATCAA | -0.00852
CCGACTCG | -0.0799
AGATTTGG | -0.144
CACAACCA | 0.0444
GAGTGGGC | -0.125
AATTCTGC | 0.139
AAGCGGCG | -0.106
ACCTCACG | -0.0625
CTAATGCC | -0.0237
GGTATCGA | 0.203
AACACAGG | 0.0478
AGAGGATG | 0.0356

Sequence | PBM E-score
CGTGAACC | -0.165
CTTCGGTA | -0.0647
AGTTCGAA | 0.181
CTCTCAAC | -0.121
CACTGACC | -0.038
GTAACAAA | 0.0273
GCCTCTTA | -0.00061
AGGCTAAG | -0.145
CGATTACC | 0.0511
TCAGAGAA | -0.0852
CTTCGCTA | 0.143
AGACAAAT | 0.0467
CATATAAG | 0.0579
ACCGTATC | -0.16
CTTCATAA | 0.0697
AATACCGC | -0.0057
CCACTAGG | -0.0849
CATTGACC | 0.0998
ACTTCCAT | -0.09
GGGTCCTA | 0.191
GGTCGCAC | -0.0388
ATTTTCCA | 0.0889
CGACAACA | 0.157
CCAATAAG | -0.0823
GCTGTGCC | 0.0262

Sequence | PBM E-score
GAGCTACC | 0.00878
GAGAAGCC | 0.0783
TGCCCGAA | 0.0694
GAAGTCGC | 0.0236
CCACGGAA | 0.00928
GTATCCGA | -0.00528
ACGCCTTA | -0.196
AAAACGAG | -0.117
CGTCAGTA | -0.114
CCGGCGAG | 0.0556
GAGGGAGC | -0.26
AGGTTTAA | -0.0352
TGATATAA | -0.183
ATCCCCTG | -0.0829
ACTACAGA | 0.131
ACTGCTTG | -0.218
GCCTCTCC | -0.162
AATATTAG | 0.256
GTCATCAC | -0.0469
ATCGCGCA | -0.004
GAACACAA | -0.0379
AAGCCATC | 0.0293
ATGCTGAA | -0.0269
CAGCCGAC | -0.109
ATTAGTTA | 0.268

Sequence | PBM E-score
AGACCTGA | -0.041
CACGTCCA | -0.177
TCCTTAGA | -0.274
AGACTATC | -0.136
ATTCAGTG | 0.154
AGGCGTGC | -0.104
TAGGGAGA | -0.0425
AGCGCACG | 0.0197
ACAGTAGG | -0.0181
GCTCCTAA | -0.137
AGGATCCC | 0.0569
GTCGGAAC | -0.052
GCTCAGAA | -0.0105
GCAACTGA | 0.216
GGTCAAAC | -0.068
CCCTCGCA | -0.0483
GGGATAAA | 0.22
ACACGCAG | -0.0725
ACTTTAAG | 0.243
CCTTTTGC | 0.0394
GCATCCGC | -0.00657
ACGCCTGC | -0.132
ATCGGCCC | -0.0201
CCTCACTA | -0.0681
AAACAGAA | -0.0904

Sequence | PBM E-score
TATTAGGA | -0.0292
CTTCCAGA | -0.0795
AATTCCAA | 0.0999
CGGCGTAA | 0.0198
CTCATACA | 0.0364
GCATGTGA | 0.0613
GTCGCATA | 0.141
ATGGGTCG | -0.00231
GACATGCA | -0.0301
CGACAGCA | 0.0178
CGACCTTC | 0.0897
AGGCCTTC | -0.163
ACCTGAGT | -0.114
AGATACAG | 0.136
ACTGGCAG | -0.0924
GATCTCGA | 0.148
AGGACGAT | 0.0844
GGACGGTA | -0.197
CGCGCATA | 0.116
CACGCGAC | 0.00687
AGGAACCG | -0.107
ATCGGAAT | 0.137
GCCTGTCA | -0.0935
ACATAAGG | 0.0478
CCTCTGGA | -0.0587

Sequence | PBM E-score
AACTGACG | -0.11
CCGTTCGC | -0.11
AAGCAACC | 0.0926
ACACCCTA | 0.108
CACATAAC | -0.0329
CCGCAGCC | -0.107
AGTTGAAG | -0.0018
GGTTACTA | -0.0731
AACACATC | -0.0582
AGAGCGCT | 0.0785
ATCCGACG | 0.138
CCTTTAAA | -0.0552
ACGTAAAA | 0.0312
GCGACGAA | 0.0789
AAGCAATG | 0.171
TAAGGCTA | 0.00969
AAGAGATT | 0.00595
ACCTTACA | -0.133
CCGCACGC | -0.0769
ATAGTGCC | -0.0203
GGAGATAA | -0.0475
CCCTTGTC | 0.0459
CGGCCAAG | -0.0413
GGGTAGAC | -0.106
CTAGTCAA | -0.0441

4 entries from above, with each value named:
AAGCAACC
  PBM E-score = 0.0926
ACACCCTA
  PBM E-score = 0.108
CACATAAC
  PBM E-score = -0.0329
CCGCAGCC
  PBM E-score = -0.107

Further records follow:

Sequence | PBM E-score
ACCATGAT | -0.0731
TTGGCAAA | 0.132
TAATGGCA | 0.0836
CTCTTGCA | 0.00461
ACCTTGAC | -0.0126
ACATCCTC | -0.0204
ATCTCACC | -0.0204
CGCTCGCC | 0.00185
AGTCTCCA | -0.234
CTCCGCGA | 0.115
GGTGTGTA | -0.0167
CTGTATTC | 0.0269
GCTCAAGA | -0.177
CCATTGCC | 0.0289
CCGAATCC | 0.177
CCGATGAG | -0.0295
ACGCTAAT | -0.0638
ATCTCAAT | 0.0327
ACAGTGCT | 0.0642
CAGGACGG | -0.166
CTCCTTAA | -0.0313
GGCTGGAC | -0.233
AGTCACTG | -0.0745
ATTTAAAC | 0.128
ATATGTCG | -0.00144

Sequence | PBM E-score
ACGAACTC | 0.0595
GGTGGTGA | 0.0143
CGTGTTCA | -0.0605
AATATACA | 0.0984
TAACCTTA | -0.0909
ATGTCCCC | 0.116
AGTCCCCC | -0.341
AGAAGAAT | -0.147
CACTCACC | -0.0529
AAGGCTCT | -0.154
ATTACTTC | -0.152
CCTTTGGA | -0.0627
CTCTTAAA | 0.0988
CCTAATCA | 0.219
AGATCCCC | 0.00146
AGGATAGA | -0.00758
CTTATATC | 0.155
AGCCCATG | 0.0226
AGTCTCGG | -0.0965
